Source: patent US7858334B2, “Degradation of hydrophobic ester pesticides and toxins” (priority 2002, dated 2010)
At least one read-out could not be matched to a standard name with certainty.

B1: E3WT: wild-type Lucilia cuprina E3 α-carboxylesterase (SEQ ID NO:1), baculovirus expressed (protein, listed as Lucilia cuprina)
chain: MNFNVSLMEKLKWKIKCIENKFLNYRLTTNETVVAETEYGKVKGVKRLTVYDDSYYSFEGIPYAQPPVGELRFKAPQRPTPWDGVRDCCNHKDKSVQVDFITGKVCGSEDCLYLSVYTNNLNPETKRPVLVYIHGGGFIIGENHRDMYGPDYFIKKDVVLINIQYRLGALGFLSLNSEDLNVPGNAGLKDQVMALRWIKNNCANFGGNPDNITVFGESAGAASTHYMMLTEQTRGLFHRGILMSGNAICPWANTQCQHRAFTLAKLAGYKGEDNDKDVLEFLMKAKPQDLIKLEEKVLTLEERTNKVMFPFGPTVEPYQTADCVLPKHPREMVKTAWGNSIPTMMGNTSYEGLFFTSILKQMPMLVKELETCVNFVPSELADAERTAPETLEMGAKIKKAHVTGETPTADNFMDLCSHIYFWFPMHRLLQLRFNHTSGTPVYLYRFDFDSEDLINPYRIMRSGRGVKGVSHADELTWFFWNQLAKRMPKESREYKTIERMTGIWIQFATTGNPYSNEIEGMENVSWDPIKKSDEVYKCLNISDELKMIDVPEMDKIKQWESMFEKHRDLF
B2: EST23WT: wild-type Drosophila melanogaster EST23 α-carboxylesterase (SEQ ID NO:2), orthologue of E3 (protein)
chain: MNKNLGFVERLRGRLKTIEHKVQQYRQSTNETVVADTEYGQVRGIKRLSLYDVPYFSFEGIPYAQPPVGELRFKAPQRPIPWEGVRDCSQPKDKAVQVQFVFDKVEGSEDCLYLNVYTNNVKPDKARPVMVWIHGGGFIIGEANREWYGPDYFMKEDVVLVTIQYRLGALGFMSLKSPELNVPGNAGLKDQVLALKWIKNNCASFGGDPNCITVFGESAGGASTHYMMLTDQTQGLFHRGILQSGSAICPWAYNGDITHNPYRIAKLVGYKGEDNDKDVLEFLQNVKAKDLIRVEENVLTLEERMNKIMFRFGPSLEPFSTPECVISKPPKEMMKTAWSNSIPMFIGNTSYEGLLWVPEVKLMPQVLQQLDAGTPFIPKELLATEPSKEKLDSWSAQIRDVHRTGSESTPDNYMDLCSIYYFVFPALRVVHSRHAYAAGAPVYFYRYDFDSEELIFPYRIMRMGRGVKGVSHADDLSYQFSSLLARRLPKESREYRNIERTVGIWTQFAATGNPYSEKINGMDTLTIDPVRKSDEVIKCLNISDDLKFIDLPEWPKLKVWESLYDDNKDLLF
modifications: Drosophila melanogaster

What was measured:
Format in all cases: biochemical
[1] = Hydrolysis of dibromo analogue of permethrin, TLC assay; settings: baculovirus-expressed enzyme cell extract; alcohol-labelled substrate
[2] = Permethrin hydrolysis assay, radiometric partition (cis isomers); settings: baculovirus-expressed enzyme cell extract; substrate 0.5 μM, 30°, pH 7.0; faster-hydrolysed enantiomer; — = not substantially different from control cell extracts
[3] = Hydrolysis of dibromo analogue of permethrin, TLC assay; settings: baculovirus-expressed enzyme cell extract; alcohol-labelled substrate; remark: listed apart in the source
[4] = Malathion hydrolysis (MCE) assay; settings: 14C malathion 50 nM to 1 μM; calculated from Km and kcat
[5] = Permethrin hydrolysis assay, radiometric partition (trans isomers); settings: baculovirus-expressed enzyme cell extract; substrate 0.5 μM, 30°, 0.1M phosphate buffer pH 7.0; faster-hydrolysed enantiomer of the pair
[6] = Deltamethrin isomer hydrolysis, chloroform-methanol extraction assay; settings: — = not substantially different from values obtained using control cell extracts
[7] = as above; settings: — = not substantially different from values obtained using control cell extracts; remark: listed apart in the source

Row | Molecule | Specificity Constant (kcat/Km) NRDC157 1R cis [1] | Specificity Constant (kcat/Km) 1S/1R cis-permethrin [2] | Specificity Constant (kcat/Km) NRDC157 1S cis [3] | Specificity Constant (kcat/Km) malathion [4] | Specificity Constant (kcat/Km) 1S/1R trans-permethrin [5] | Specificity Constant (kcat/Km) 1S cis αS deltamethrin [6] | Specificity Constant (kcat/Km) 1S cis αR deltamethrin [7]
1 | B1 | 630 M⁻¹ s⁻¹ | 3 400 M^−1 sec^−1 | 4 700 M^−1 sec^−1 | 2 600 000 M^−1 sec^−1 | 90 000 M^−1 sec^−1 |  | 
2 | B2 | 330 M⁻¹ s⁻¹ | 890 M⁻¹ s⁻¹ | 990 M⁻¹ s⁻¹ | 2 700 000 M^−1 sec^−1 | 21 000 M^−1 sec^−1 | 750 M⁻¹ s⁻¹ | 450 M⁻¹ s⁻¹
